PubChem BioAssay AID493246, Drosophila RNAi Screening Center – 2011
The deposit covers about 21,000 reagents; shown is a random part of those with a known target gene and a result. In the full data, 429 (2%) are marked active. 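Values are raw and not normalised between plates; calls rest on per-plate z-scores that were not deposited.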 Names joined by + are all predicted targets of the reagent. The record does not give: the amount of reagent, the time to read-out.

Test: 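Genes fly cells need to grow and stay alive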 (primary screen)
Cells: Drosophila Kc and S2R+ cells
Knock-down reagent: long dsRNA against Drosophila genes
Measured: 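Cell number per well after knock-down, printed as raw plate values; calls were based on per-plate z-scores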
Reading the numbers: Kc cell number and S2R+ cell number: higher = more cells remaining
Hit rule: 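Counted as a hit if cell number falls by a z-score of at least 3 within its plate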

Target gene | dsRNA | Kc cell number, rep 1 | Kc cell number, rep 2 | S2R+ cell number, rep 1 | S2R+ cell number, rep 2 | activity call
raw (GeneID 44851) | DRSC03599 | 1.37e6 | 1.44e6 | 7.06e5 | 7.88e5 | active
raw (GeneID 44851) | DRSC03600 | 1.49e6 | 1.52e6 | 8.80e5 | 1.06e6 | inactive
CG7789 (GeneID 43516) | DRSC16312 | 4.86e5 | – | 8.51e5 | – | inactive
Atx2 (GeneID 41883) | DRSC15727 | 3.25e5 | 6.12e5 | 5.58e5 | 4.46e5 | active
CG10903 (GeneID 40952) | DRSC14281 | 1.34e6 | 1.44e6 | 1.21e6 | 1.35e6 | inactive
CG12934 (GeneID 36124) | DRSC06247 | 1.45e6 | 1.51e6 | 1.14e6 | 1.27e6 | inactive
tgy (GeneID 32896) | DRSC20045 | 1.41e6 | 1.42e6 | 1.05e6 | 1.13e6 | inactive
metro (GeneID 36176) | DRSC06341 | 1.31e6 | 1.41e6 | 1.10e6 | 1.10e6 | inactive
metro (GeneID 36176) | DRSC06725 | 1.55e6 | 1.62e6 | 1.24e6 | 1.33e6 | inactive
yellow-e3 (GeneID 41651) | DRSC15170 | 1.47e6 | 1.58e6 | 1.23e6 | 1.32e6 | inactive
CHMP2B (GeneID 38599) | DRSC10436 | 1.42e6 | 1.52e6 | 1.29e6 | 1.08e6 | inactive
Gnmt (GeneID 41561) | DRSC15987 | 1.56e6 | 1.59e6 | 1.32e6 | 1.42e6 | inactive
Vps2 (GeneID 43164) | DRSC14886 | 4.68e5 | – | 7.07e5 | – | inactive
CG12693 (GeneID 31375) | DRSC17882 | 1.45e6 | 1.46e6 | 9.97e5 | 1.12e6 | inactive
CG9903 (GeneID 32621) | DRSC20213 | 1.71e6 | 1.70e6 | 1.04e6 | 1.20e6 | inactive
Trs33 (GeneID 41866) | DRSC15990 | 1.21e6 | 1.34e6 | 1.17e6 | 1.29e6 | inactive
CG42507 + Trl | DRSC09325 | 1.40e6 | 1.52e6 | 1.11e6 | 1.22e6 | inactive
CG42507 + Trl | DRSC11308 | 3.03e5 | 5.18e5 | 4.23e5 | 5.20e5 | active
vkg (GeneID 33726) | DRSC03632 | 1.61e6 | 1.49e6 | 1.09e6 | 1.28e6 | inactive
AdamTS-B (GeneID 31490) | DRSC18346 | 1.68e6 | 1.63e6 | 1.08e6 | 1.15e6 | inactive
CG5321 (GeneID 32399) | DRSC19940 | 1.52e6 | 1.49e6 | 1.08e6 | 1.17e6 | inactive
mRRF1 (GeneID 39067) | DRSC10421 | 1.56e6 | 1.60e6 | 1.16e6 | 1.18e6 | inactive
p130CAS (GeneID 38021) | DRSC07862 | 1.58e6 | 1.54e6 | 1.03e6 | 1.21e6 | inactive
p130CAS (GeneID 38021) | DRSC08257 | 1.43e6 | 1.46e6 | 1.22e6 | 1.19e6 | inactive

Hits, among the entries above:
Target gene | dsRNA | Kc cell number, rep 1 | Kc cell number, rep 2 | S2R+ cell number, rep 1 | S2R+ cell number, rep 2 | activity call
raw (GeneID 44851) | DRSC03599 | 1.37e6 | 1.44e6 | 7.06e5 | 7.88e5 | active
Atx2 (GeneID 41883) | DRSC15727 | 3.25e5 | 6.12e5 | 5.58e5 | 4.46e5 | active
CG42507 + Trl | DRSC11308 | 3.03e5 | 5.18e5 | 4.23e5 | 5.20e5 | active
